The other results are listed elsewhere or left out.
Tests used:
Assay in all cases: log2 fold change, soluble protein after heating vs DMSO (PISA); higher = thermal stabilisation; K562 lysate, 10 uM; active = over 0.2 and 3.5 SD of the protein, either way, in both replicates (recomputed)
lapatinib = compound: CS(=O)(=O)CCNCc1ccc(-c2ccc3ncnc(Nc4ccc(OCc5cccc(F)c5)c(Cl)c4)c3c2)o1 [lapatinib]
Procedure, shortened: (§1)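 Log-two fold change in thermal stability relative to solvent controls is reported from duplicates. For each sample, crude K562 extract from dounce-homogenised pellets in PBS pH 7.4 with 1 mM MgCl2, at 1 mg/mL protein, was treated with 10 μM compound for 30 min. Aliquots heated for 3 min across 48°C-58°C were pooled, brought to 0.5% NP-40 at 4°C and cleared at 21,000xg for 90 min. The supernatant was quantified by TMTpro 16plex LC-MS/MS with channel sums equalised.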

Sequences of proteins named here, by UniProt entry; tags and fusion partners are left off. A change or cut given only in a name is not applied to a line headed by its entry.
UniProt Q8IZ07: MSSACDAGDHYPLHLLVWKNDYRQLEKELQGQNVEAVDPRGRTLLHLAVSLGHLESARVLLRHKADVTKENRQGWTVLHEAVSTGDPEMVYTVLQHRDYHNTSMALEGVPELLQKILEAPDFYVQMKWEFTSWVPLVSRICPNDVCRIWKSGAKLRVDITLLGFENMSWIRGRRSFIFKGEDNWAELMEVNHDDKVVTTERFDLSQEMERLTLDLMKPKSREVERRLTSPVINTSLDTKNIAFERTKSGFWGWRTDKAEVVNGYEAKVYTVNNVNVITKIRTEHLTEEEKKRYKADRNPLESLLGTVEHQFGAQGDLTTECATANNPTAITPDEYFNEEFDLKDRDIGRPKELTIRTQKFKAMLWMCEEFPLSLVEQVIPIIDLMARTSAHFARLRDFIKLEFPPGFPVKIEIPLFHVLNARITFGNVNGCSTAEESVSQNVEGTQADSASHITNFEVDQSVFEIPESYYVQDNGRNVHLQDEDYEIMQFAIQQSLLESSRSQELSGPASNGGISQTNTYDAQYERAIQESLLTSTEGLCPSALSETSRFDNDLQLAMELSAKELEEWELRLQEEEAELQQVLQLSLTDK
UniProt P39687: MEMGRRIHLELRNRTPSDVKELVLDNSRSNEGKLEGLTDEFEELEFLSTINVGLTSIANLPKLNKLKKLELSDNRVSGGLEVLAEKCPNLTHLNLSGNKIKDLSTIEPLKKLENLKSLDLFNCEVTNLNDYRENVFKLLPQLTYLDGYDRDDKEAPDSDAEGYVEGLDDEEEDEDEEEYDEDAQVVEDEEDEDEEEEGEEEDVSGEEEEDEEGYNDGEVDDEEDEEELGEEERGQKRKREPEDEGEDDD
UniProt Q6NS38: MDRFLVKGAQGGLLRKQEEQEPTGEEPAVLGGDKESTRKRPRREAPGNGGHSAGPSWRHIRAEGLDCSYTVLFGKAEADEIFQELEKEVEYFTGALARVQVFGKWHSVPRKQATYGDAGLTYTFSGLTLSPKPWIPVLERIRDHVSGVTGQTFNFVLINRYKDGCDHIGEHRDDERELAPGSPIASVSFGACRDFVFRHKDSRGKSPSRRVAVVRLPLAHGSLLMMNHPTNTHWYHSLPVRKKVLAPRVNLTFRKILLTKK
UniProt P31749: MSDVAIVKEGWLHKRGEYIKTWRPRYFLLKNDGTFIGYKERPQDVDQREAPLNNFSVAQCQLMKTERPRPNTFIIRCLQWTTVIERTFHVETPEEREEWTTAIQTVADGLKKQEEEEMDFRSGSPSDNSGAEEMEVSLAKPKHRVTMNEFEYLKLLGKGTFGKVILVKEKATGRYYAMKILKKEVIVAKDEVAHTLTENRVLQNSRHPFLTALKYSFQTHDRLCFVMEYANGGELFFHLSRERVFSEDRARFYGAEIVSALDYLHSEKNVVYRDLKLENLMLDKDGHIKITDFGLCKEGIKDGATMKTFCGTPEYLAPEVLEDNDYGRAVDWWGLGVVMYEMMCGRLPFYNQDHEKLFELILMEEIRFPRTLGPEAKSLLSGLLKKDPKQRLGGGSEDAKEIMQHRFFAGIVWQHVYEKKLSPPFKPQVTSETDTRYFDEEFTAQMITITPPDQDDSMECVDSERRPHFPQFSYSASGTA
UniProt Q8IWZ3: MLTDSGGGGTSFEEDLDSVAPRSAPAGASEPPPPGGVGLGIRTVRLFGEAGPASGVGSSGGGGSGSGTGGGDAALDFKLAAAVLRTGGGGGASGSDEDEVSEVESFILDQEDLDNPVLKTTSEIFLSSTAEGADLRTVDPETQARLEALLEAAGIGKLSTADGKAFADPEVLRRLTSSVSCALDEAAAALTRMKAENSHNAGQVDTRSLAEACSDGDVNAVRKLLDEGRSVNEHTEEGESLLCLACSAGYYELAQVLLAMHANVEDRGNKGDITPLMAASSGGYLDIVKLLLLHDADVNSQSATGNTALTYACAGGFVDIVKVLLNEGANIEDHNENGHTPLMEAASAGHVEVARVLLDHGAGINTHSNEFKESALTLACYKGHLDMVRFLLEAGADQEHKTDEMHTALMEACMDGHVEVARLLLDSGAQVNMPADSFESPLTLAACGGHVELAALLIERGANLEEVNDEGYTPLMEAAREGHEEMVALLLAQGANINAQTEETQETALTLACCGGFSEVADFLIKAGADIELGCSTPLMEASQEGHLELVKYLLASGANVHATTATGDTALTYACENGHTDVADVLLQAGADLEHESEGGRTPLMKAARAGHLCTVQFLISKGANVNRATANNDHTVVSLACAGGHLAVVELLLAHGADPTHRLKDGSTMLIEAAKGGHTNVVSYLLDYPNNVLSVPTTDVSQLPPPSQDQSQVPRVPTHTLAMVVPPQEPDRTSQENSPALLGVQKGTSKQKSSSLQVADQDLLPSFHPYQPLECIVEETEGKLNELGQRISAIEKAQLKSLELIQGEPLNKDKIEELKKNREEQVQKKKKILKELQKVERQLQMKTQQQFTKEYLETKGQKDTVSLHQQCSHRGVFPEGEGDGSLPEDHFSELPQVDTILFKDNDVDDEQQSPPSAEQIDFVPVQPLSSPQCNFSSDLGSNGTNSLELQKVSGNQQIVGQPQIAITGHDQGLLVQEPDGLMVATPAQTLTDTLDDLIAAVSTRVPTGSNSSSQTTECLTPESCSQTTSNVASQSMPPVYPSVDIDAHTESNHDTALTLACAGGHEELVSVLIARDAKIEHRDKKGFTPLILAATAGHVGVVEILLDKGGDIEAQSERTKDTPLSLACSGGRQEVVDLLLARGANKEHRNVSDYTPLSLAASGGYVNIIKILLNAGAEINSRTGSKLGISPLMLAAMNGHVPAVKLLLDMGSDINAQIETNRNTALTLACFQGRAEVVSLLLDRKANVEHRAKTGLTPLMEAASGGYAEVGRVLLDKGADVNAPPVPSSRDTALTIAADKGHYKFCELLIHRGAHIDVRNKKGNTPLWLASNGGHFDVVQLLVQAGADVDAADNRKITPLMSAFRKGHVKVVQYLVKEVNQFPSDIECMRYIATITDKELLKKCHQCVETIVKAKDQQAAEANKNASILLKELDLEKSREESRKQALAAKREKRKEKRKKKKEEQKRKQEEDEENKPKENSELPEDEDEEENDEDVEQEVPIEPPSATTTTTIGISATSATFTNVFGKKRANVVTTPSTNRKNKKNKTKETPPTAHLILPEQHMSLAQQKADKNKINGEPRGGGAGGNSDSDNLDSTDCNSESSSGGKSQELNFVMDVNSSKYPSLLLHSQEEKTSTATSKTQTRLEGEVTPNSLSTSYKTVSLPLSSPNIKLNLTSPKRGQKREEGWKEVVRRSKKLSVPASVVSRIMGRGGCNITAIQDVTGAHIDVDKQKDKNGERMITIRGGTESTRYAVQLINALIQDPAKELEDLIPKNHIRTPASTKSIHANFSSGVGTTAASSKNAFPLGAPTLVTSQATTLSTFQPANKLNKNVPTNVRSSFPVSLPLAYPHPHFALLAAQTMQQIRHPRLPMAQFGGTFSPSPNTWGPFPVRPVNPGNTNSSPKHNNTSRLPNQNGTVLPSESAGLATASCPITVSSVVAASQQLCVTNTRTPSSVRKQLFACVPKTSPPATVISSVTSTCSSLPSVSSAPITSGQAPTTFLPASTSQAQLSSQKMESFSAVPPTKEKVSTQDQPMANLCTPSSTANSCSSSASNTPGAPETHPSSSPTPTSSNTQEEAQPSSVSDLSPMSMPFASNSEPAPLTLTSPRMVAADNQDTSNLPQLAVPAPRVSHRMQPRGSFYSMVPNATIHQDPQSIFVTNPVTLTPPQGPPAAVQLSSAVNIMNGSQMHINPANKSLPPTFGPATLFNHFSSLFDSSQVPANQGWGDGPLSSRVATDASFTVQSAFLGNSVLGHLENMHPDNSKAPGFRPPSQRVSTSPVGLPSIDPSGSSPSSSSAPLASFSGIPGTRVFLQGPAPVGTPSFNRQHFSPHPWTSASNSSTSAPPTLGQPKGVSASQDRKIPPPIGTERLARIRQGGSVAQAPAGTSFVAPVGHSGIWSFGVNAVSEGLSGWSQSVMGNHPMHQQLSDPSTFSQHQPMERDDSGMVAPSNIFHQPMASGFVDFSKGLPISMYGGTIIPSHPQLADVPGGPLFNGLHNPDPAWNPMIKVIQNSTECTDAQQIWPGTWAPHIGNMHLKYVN
UniProt Q8IV38: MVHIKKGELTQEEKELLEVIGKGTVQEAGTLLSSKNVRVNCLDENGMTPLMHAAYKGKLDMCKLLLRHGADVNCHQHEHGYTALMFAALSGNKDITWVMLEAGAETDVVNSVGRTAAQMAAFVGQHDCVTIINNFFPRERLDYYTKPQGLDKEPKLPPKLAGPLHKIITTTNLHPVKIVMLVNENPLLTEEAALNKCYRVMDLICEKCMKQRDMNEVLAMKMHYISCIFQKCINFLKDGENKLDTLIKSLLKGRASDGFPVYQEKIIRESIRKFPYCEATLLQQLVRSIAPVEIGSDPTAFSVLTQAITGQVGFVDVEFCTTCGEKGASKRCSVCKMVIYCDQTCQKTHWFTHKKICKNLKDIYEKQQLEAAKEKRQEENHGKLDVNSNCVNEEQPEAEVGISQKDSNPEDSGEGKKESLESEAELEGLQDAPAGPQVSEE
UniProt Q9UPM8: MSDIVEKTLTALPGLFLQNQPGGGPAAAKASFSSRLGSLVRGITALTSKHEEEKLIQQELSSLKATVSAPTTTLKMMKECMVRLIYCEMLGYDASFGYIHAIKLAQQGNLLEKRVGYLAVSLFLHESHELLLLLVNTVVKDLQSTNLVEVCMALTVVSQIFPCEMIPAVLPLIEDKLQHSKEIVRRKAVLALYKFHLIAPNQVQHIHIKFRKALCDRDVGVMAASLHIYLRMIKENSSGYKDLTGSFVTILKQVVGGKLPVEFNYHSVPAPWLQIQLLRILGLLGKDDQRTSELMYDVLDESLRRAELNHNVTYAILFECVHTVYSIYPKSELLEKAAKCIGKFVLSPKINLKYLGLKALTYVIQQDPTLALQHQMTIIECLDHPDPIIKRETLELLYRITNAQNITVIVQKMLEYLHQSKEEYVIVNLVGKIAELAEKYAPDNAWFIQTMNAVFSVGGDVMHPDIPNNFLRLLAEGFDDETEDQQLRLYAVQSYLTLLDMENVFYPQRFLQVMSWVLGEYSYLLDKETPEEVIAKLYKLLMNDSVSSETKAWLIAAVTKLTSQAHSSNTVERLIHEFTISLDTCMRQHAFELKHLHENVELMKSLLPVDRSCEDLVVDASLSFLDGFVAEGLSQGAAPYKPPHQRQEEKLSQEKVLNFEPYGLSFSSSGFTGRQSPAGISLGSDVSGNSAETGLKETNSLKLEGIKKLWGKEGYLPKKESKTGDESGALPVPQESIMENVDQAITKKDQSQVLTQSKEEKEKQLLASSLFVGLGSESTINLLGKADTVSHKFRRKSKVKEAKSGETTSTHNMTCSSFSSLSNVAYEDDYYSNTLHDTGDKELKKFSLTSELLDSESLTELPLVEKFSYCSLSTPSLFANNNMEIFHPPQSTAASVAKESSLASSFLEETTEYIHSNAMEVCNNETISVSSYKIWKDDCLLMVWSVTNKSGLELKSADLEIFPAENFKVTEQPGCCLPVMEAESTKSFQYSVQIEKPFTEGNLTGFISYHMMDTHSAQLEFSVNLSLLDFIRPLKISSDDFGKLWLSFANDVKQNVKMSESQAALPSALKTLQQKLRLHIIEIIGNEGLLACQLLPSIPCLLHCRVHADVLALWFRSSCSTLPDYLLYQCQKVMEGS
UniProt Q6NXT1: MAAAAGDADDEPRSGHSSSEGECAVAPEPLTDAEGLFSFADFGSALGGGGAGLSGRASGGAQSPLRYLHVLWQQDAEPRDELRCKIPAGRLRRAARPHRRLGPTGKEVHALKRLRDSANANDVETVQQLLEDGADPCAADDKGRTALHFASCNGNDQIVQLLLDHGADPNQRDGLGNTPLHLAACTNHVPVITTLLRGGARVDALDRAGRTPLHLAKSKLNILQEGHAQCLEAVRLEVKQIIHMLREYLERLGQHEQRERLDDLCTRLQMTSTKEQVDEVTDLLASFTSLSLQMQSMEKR
UniProt P12429: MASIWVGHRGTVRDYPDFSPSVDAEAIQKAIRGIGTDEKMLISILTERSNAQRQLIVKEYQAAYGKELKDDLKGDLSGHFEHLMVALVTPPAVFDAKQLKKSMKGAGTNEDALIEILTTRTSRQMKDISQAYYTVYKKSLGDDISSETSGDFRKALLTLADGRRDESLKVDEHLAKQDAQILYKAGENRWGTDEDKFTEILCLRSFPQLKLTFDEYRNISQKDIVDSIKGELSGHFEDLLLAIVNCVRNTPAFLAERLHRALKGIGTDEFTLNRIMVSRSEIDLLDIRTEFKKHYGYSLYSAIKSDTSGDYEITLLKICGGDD

pictilisib = compound: CS(=O)(=O)N1CCN(Cc2cc3nc(-c4cccc5[nH]ncc45)nc(N4CCOCC4)c3s2)CC1 [pictilisib]
Procedure, shortened: as §1

crizotinib = compound: C[C@@H](Oc1cc(-c2cnn(C3CCNCC3)c2)cnc1N)c1c(Cl)ccc(F)c1Cl [crizotinib]
Procedure, shortened: as §1

[1] = compound: C[C@H](C1=CC=C(C=C1)C(=O)NC2=C3C=CNC3=NC=C2)N
Procedure, shortened: as §1

duvelisib = compound: C[C@H](Nc1ncnc2nc[nH]c12)c1cc2cccc(Cl)c2c(=O)n1-c1ccccc1 [duvelisib]
Procedure, shortened: as §1

gandotinib = compound: Cc1cc(Nc2cc(CN3CCOCC3)c3nc(C)c(Cc4ccc(Cl)cc4F)n3n2)n[nH]1 [gandotinib]
Procedure, shortened: as §1

tozasertib = compound: Cc1cc(Nc2cc(N3CCN(C)CC3)nc(Sc3ccc(NC(=O)C4CC4)cc3)n2)n[nH]1 [tozasertib]
Procedure, shortened: as §1

doramapimod = compound: Cc1ccc(-n2nc(C(C)(C)C)cc2NC(=O)Nc2ccc(OCCN3CCOCC3)c3ccccc23)cc1 [doramapimod]
Procedure, shortened: as §1

bafetinib = compound: Cc1ccc(NC(=O)c2ccc(CN3CC[C@H](N(C)C)C3)c(C(F)(F)F)c2)cc1Nc1nccc(-c2cncnc2)n1 [bafetinib]
Procedure, shortened: as §1

[2] = compound: Cc1cccc(CC(=O)N2CCc3c2ccc(-c2cn(C)c4ncnc(N)c24)c3F)n1
Procedure, shortened: as §1

nilotinib = compound: Cc1cn(-c2cc(NC(=O)c3ccc(C)c(Nc4nccc(-c5cccnc5)n4)c3)cc(C(F)(F)F)c2)cn1 [nilotinib]
Procedure, shortened: as §1

[3] = compound: Cc1nc(Nc2n[nH]c3c2CN(C(=O)N[C@H](CN(C)C)c2ccccc2)C3(C)C)c2sccc2n1
Procedure, shortened: as §1

dasatinib = compound: Cc1nc(Nc2ncc(C(=O)Nc3c(C)cccc3Cl)s2)cc(N2CCN(CCO)CC2)n1 [dasatinib]
Procedure, shortened: as §1

[4] = compound: Cc1ncc(-c2ccnc(Nc3ccc(S(C)(=O)=O)cc3)n2)n1C(C)C
Procedure, shortened: as §1

[5] = compound: Cn1cc(-c2ccc3c(c2)CCN3C(=O)Cc2cccc(C(F)(F)F)c2)c2c(N)ncnc21
Procedure, shortened: as §1

quisinostat = compound: Cn1cc(CNCC2CCN(c3ncc(C(=O)NO)cn3)CC2)c2ccccc21 [quisinostat]
Procedure, shortened: as §1

tipifarnib = compound: Cn1cncc1[C@@](N)(c1ccc(Cl)cc1)c1ccc2c(c1)c(-c1cccc(Cl)c1)cc(=O)n2C [tipifarnib]
Procedure, shortened: as §1

[6] = compound: NC(=O)Nc1cc(-c2cccc(F)c2)sc1C(=O)N[C@H]1CCCNC1
Procedure, shortened: as §1

[7] = compound: NC(=O)c1cnc(N[C@@H]2CCCC[C@@H]2N)nc1Nc1cccc(-n2nccn2)c1
Procedure, shortened: as §1

[8] = compound: NC1(c2ccc(-c3nc4ccn5c(=O)[nH]nc5c4cc3-c3ccccc3)cc2)CCC1
Procedure, shortened: as §1

Measured: log2 fold change

ANKRD13A (UniProt Q8IZ07)
inactive: lapatinib 0.017 | pictilisib -0.071 | crizotinib -0.031 | [1] -0.04 | duvelisib -0.022 | gandotinib -0.015 | tozasertib -0.009 | doramapimod 0.028 | bafetinib -0.01 | [2] 0.016 | nilotinib -0.069 | [3] -0.002 | dasatinib 0.036 | [4] -0.032 | [5] 0.023 | quisinostat -0.039 | tipifarnib 0.011 | [6] 0.018 | [7] 0.012 | [8] 0.004

ANKRD30A (UniProt Q9BXX3)
inactive: lapatinib -0.228 | pictilisib 0.028 | crizotinib 0.128 | [1] -0.155 | duvelisib -0.038 | tozasertib 0.281 | doramapimod -0.068 | bafetinib 0.069 | [2] 0.918 | nilotinib -0.008 | [3] -0.012 | dasatinib 0.006 | [4] -0.039 | [5] -0.017 | quisinostat 0.179 | tipifarnib 0.15 | [6] 0.047 | [7] 0.807
active: gandotinib 1.59

ANP32A (UniProt P39687)
inactive: lapatinib 0.068 | pictilisib -0.001 | crizotinib 0 | [1] -0.063 | duvelisib -0.003 | gandotinib 0.065 | tozasertib 0.014 | doramapimod 0.096 | bafetinib 0.126 | [2] 0 | nilotinib -0.003 | [3] 0.03 | dasatinib 0.125 | [4] -0.011 | [5] -0.039 | quisinostat -0.006 | tipifarnib 0.002 | [6] -0.097 | [7] 0.012
active: [8] -0.359

ALKBH2 (UniProt Q6NS38)
inactive: lapatinib -0.04 | pictilisib -0.099 | crizotinib 0.045 | [1] -0.177 | duvelisib 0.098 | gandotinib 0.025 | tozasertib -0.09 | doramapimod -0.102 | bafetinib -0.021 | [2] 0.029 | nilotinib -0.043 | [3] 0.019 | dasatinib 0.035 | [4] -0.115 | [5] -0.015 | quisinostat -0.076 | tipifarnib -0.112 | [6] 0.001 | [7] -0.139 | [8] -0.012

AKT1 (UniProt P31749)
active: [8] 0.669
inactive: lapatinib 0.054 | pictilisib 0.002 | crizotinib -0.049 | [1] -0.034 | duvelisib -0.008 | gandotinib -0.048 | tozasertib 0 | doramapimod 0.031 | bafetinib -0.044 | [2] 0.033 | nilotinib -0.05 | [3] 0.012 | dasatinib -0.014 | [4] -0.01 | [5] 0.001 | quisinostat -0.1 | tipifarnib 0.025 | [6] 0 | [7] -0.007

ANKRD17 (UniProt O75179)
inactive: lapatinib -0.012 | pictilisib -0.03 | crizotinib -0.043 | [1] -0.059 | duvelisib 0.02 | gandotinib 0.031 | tozasertib -0.017 | doramapimod -0.125 | bafetinib -0.032 | [2] 0.051 | nilotinib -0.012 | [3] -0.022 | dasatinib -0.026 | [4] -0.008 | [5] 0.016 | quisinostat 0.018 | tipifarnib -0.035 | [6] 0.045 | [7] 0.004 | [8] 0.012

ANKHD1 isoform 6 (UniProt Q8IWZ3)
inactive: lapatinib -0.002 | pictilisib -0.021 | crizotinib -0.028 | [1] -0.129 | duvelisib 0.028 | gandotinib 0.096 | tozasertib 0.01 | doramapimod -0.069 | bafetinib -0.043 | [2] 0.155 | nilotinib -0.02 | [3] -0.013 | dasatinib -0.024 | [4] 0.019 | [5] 0.019 | quisinostat -0.049 | tipifarnib -0.029 | [6] 0.044 | [7] 0.016 | [8] -0.014

AMPD3 isoform 4 (UniProt Q01432)
inactive: lapatinib 0.037 | pictilisib -0.015 | crizotinib 0.014 | [1] 0.109 | duvelisib -0.053 | gandotinib -0.057 | tozasertib 0.001 | doramapimod 0.002 | bafetinib -0.002 | [2] -0.047 | nilotinib -0.002 | [3] 0.027 | dasatinib 0.014 | [4] -0.021 | [5] -0.013 | quisinostat 0.038 | tipifarnib 0.032 | [6] -0.012 | [7] -0.017 | [8] 0.012

ANKMY2 (UniProt Q8IV38)
inactive: lapatinib 0.001 | pictilisib -0.032 | crizotinib -0.001 | [1] 0.113 | duvelisib -0.007 | gandotinib -0.123 | tozasertib 0.002 | doramapimod -0.003 | bafetinib -0.007 | [2] -0.092 | nilotinib 0.04 | [3] 0.002 | dasatinib -0.011 | [4] 0.001 | [5] 0.008 | quisinostat -0.009 | tipifarnib -0.005 | [6] 0.028 | [7] -0.028 | [8] 0.003

AP4E1 (UniProt Q9UPM8)
inactive: lapatinib 0.034 | pictilisib -0.104 | crizotinib -0.043 | [1] -0.055 | duvelisib 0.03 | gandotinib 0.008 | tozasertib 0.022 | doramapimod -0.005 | bafetinib -0.039 | [2] 0.122 | nilotinib -0.005 | [3] -0.026 | dasatinib 0.021 | [4] 0.019 | [5] 0.007 | quisinostat -0.044 | tipifarnib -0.035 | [6] 0.022 | [7] -0.008 | [8] 0.011

ANKRD54 (UniProt Q6NXT1)
inactive: lapatinib 0.038 | pictilisib -0.008 | crizotinib 0.058 | [1] 0.01 | duvelisib 0.008 | gandotinib 0.049 | tozasertib -0.002 | doramapimod 0.044 | bafetinib -0.029 | [2] -0.007 | nilotinib 0.053 | [3] -0.003 | dasatinib -0.013 | [4] 0.05 | [5] -0.018 | quisinostat -0.024 | tipifarnib 0.019 | [6] -0.013 | [7] 0 | [8] 0.04

ALYREF (UniProt Q86V81)
inactive: lapatinib 0.02 | pictilisib 0.027 | crizotinib 0.051 | [1] 0.13 | duvelisib -0.006 | gandotinib -0.011 | tozasertib -0.035 | doramapimod -0.021 | bafetinib 0.047 | [2] -0.065 | nilotinib -0.162 | [3] 0.04 | dasatinib -0.016 | [4] -0.122 | [5] 0.014 | quisinostat 0.064 | tipifarnib -0.095 | [6] -0.023 | [7] -0.013 | [8] -0.026

ANXA3 (UniProt P12429)
inactive: lapatinib 0.006 | pictilisib -0.004 | crizotinib 0.005 | [1] -0.015 | duvelisib -0.025 | gandotinib -0.011 | tozasertib 0.018 | doramapimod 0.023 | bafetinib -0.02 | [2] 0.001 | nilotinib 0.02 | [3] 0.015 | dasatinib 0.029 | [4] -0.032 | [5] 0.023 | quisinostat 0.033 | tipifarnib -0.02 | [6] -0.016 | [7] 0.008 | [8] 0.039

AP2A2 isoform 2 (UniProt O94973)
inactive: lapatinib 0.005 | pictilisib -0.036 | crizotinib -0.016 | [1] -0.056 | duvelisib -0.008 | gandotinib -0.005 | tozasertib -0.007 | doramapimod 0.051 | bafetinib 0.014 | [2] 0.005 | nilotinib 0 | [3] 0.046 | dasatinib 0.008 | [4] 0.059 | [5] -0.063 | quisinostat -0.008 | tipifarnib -0.015 | [6] -0.01 | [7] -0.027 | [8] -0.038

AP3B1 (UniProt O00203)
inactive: lapatinib 0.003 | pictilisib 0 | crizotinib -0.016 | [1] -0.024 | duvelisib -0.002 | gandotinib 0.02 | tozasertib 0.034 | doramapimod 0.031 | bafetinib -0.017 | [2] 0.031 | nilotinib -0.003 | [3] 0.03 | dasatinib -0.038 | [4] -0.002 | [5] 0.005 | quisinostat -0.009 | tipifarnib -0.017 | [6] -0.001 | [7] -0.003 | [8] 0.012

Quoted at random: 2 records from the list, in no set order.
ALYREF (UniProt Q86V81)
inactive: lapatinib 0.02 | pictilisib 0.027 | crizotinib 0.051 | [1] 0.13 | duvelisib -0.006 | gandotinib -0.011 | tozasertib -0.035 | doramapimod -0.021 | bafetinib 0.047 | [2] -0.065 | nilotinib -0.162 | [3] 0.04 | dasatinib -0.016 | [4] -0.122 | [5] 0.014 | quisinostat 0.064 | tipifarnib -0.095 | [6] -0.023 | [7] -0.013 | [8] -0.026

AP2A2 isoform 2 (UniProt O94973)
inactive: lapatinib 0.005 | pictilisib -0.036 | crizotinib -0.016 | [1] -0.056 | duvelisib -0.008 | gandotinib -0.005 | tozasertib -0.007 | doramapimod 0.051 | bafetinib 0.014 | [2] 0.005 | nilotinib 0 | [3] 0.046 | dasatinib 0.008 | [4] 0.059 | [5] -0.063 | quisinostat -0.008 | tipifarnib -0.015 | [6] -0.01 | [7] -0.027 | [8] -0.038

More records follow:

ALG5 (UniProt Q9Y673)
inactive: lapatinib 0.025 | pictilisib 0.007 | crizotinib 0.003 | [1] -0.069 | duvelisib -0.001 | gandotinib 0.011 | tozasertib 0.033 | doramapimod 0.014 | bafetinib 0.005 | [2] 0.02 | nilotinib -0.042 | [3] -0.037 | dasatinib 0.027 | [4] -0.04 | [5] -0.091 | quisinostat 0.045 | tipifarnib -0.033 | [6] 0.019 | [7] 0.007 | [8] 0.005
